Experimental data: PubChem BioAssay AID1347423 (Functional Genomics Laboratory (NCATS/FGL), 2020)
Out of some 52,000 sequences screened, about 210 (0.4%) were called active.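 How the source made its calls: active means gene whose silencing raises cell survival under the drug, median off-target-corrected z-score across its silencing RNAs 2 or more; inactive means the rest.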 Some of the results follow.

Assay: Resistance to Poly (ADP-Ribose) Polymerase inhibitor: Gene Identification via Genome-wide siRNA Screen
Conditions: mouse BRCA2 R2336H ES cells, olaparib, CellTiter-Glo viability; active compounds read high
How it was run: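 Genome-wide siRNA screen (3 siRNAs/gene, 20 nM) in mouse ES cells carrying hypomorphic BRCA2 R2336H; olaparib 500 nM added 48 h post-transfection, CellTiter-Glo viability 72 h later. Normalized to plate-median negative control; MAD z-scores, gene median, seed-adjusted.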

Q: For GCGGUGUUUAAGCAUUGAUTT against Obrgrp, which z-score is on record?
A: inactive: -2.28

Q: For GGAAAAAUACUCCAUAUUCTT against Enam, which z-score is on record?
A: inactive: 0.53

Q: With CGAUUGCUACGGAUAUUAUTT against Cdkal1 as the sequence, how does the z-score read?
A: inactive: -1.38

Q: Which z-score does the source give for GGUUGGUGACACAGUGCAATT against Tcl1b2 here?
A: inactive: 0.407

Q: With “GCAAUACGGAGUCUAGCCCTT against C630028N24Rik” as the sequence, how does the z-score read?
A: inactive: 0.0163

Q: For “GGUUGUGCACAGCAGUGUUTT against 2300002G24Rik”, which z-score is on record?
A: inactive: -0.779

Q: For GGGAAACAGUGAAAAGUUCTT against BC038925, which z-score is on record?
A: inactive: -0.713

Q: Which z-score does the source give for GGUGAUCUUAGAUUUGAUUTT against Qscn6l1 here?
A: inactive: 2.59

Q: For CGUGUGUGAUUAAGUCUUATT against Bhlhb4, which z-score is on record?
A: inactive: -0.909

Q: With “GGCGUAGAUGAGUUGGAAATT against 3930402F23Rik” as the sequence, how does the z-score read?
A: inactive: -0.642

Q: For CGGCAAUACCAUCAACAAGTT against Chrne, which z-score is on record?
A: inactive: -0.0891

Q: With GGCAUCUCCUCGAAUUUAUTT against Theg as the sequence, how does the z-score read?
A: inactive: -0.712

Q: Which z-score does the source give for “GCAGAAAUACUGGCGAAUATT against 4631402N15Rik” here?
A: inactive: 0.00908

Q: Which z-score does the source give for CCCGAAUGCAAUCCUUUGGTT against Phgdh here?
A: inactive: -1.79

Q: For GGACAGUUCUCUCUGCACUTT against Tsp50, which z-score is on record?
A: inactive: -0.4

Q: Which z-score does the source give for CGUGCCAAUUGAAAAAAACTT against Park2 here?
A: inactive: -0.16

Q: With “GGAACUAACACAUGAGUCUTT against D630004N19Rik” as the sequence, how does the z-score read?
A: inactive: 0.371

Q: Which z-score does the source give for CCAAUCCUGGAAUUGCCGATT against Gnb1l here?
A: inactive: -1.2

Q: With GCACUGAAAGAAUUCGACUTT against Strn3 as the sequence, how does the z-score read?
A: inactive: 1.43

Q: Which z-score does the source give for GCCCAAUGAUUUCUCUUGUTT against Serpinb3d here?
A: inactive: -1.05

Q: With “GGUCUUUGAUGUUUUCACCTT against 4632412N22Rik” as the sequence, how does the z-score read?
A: inactive: -0.391

Q: Which z-score does the source give for GGAGGAGGUUCUUCAGUACTT against Aplp2 here?
A: inactive: -0.568

Q: With GGCCAAGGAAGAGAUCAUGTT against Ap4s1 as the sequence, how does the z-score read?
A: inactive: -0.72

Q: For GGCCACCAUGAAAGACGACTT against Eif3s1, which z-score is on record?
A: inactive: 0.654

Q: Which z-score does the source give for CCCUGUACGUUGUCUAUAATT against Olfml3 here?
A: inactive: 0.0378

Q: For GGCCCAUUGAUCUGUGAUATT against Klk8, which z-score is on record?
A: inactive: -0.338

Q: Which z-score does the source give for GGGACCGUGCUCUUUAACCTT against Nr0b1 here?
A: inactive: -0.128

Q: For GGAUCGAAGCAGAACUGCATT against Hipk3, which z-score is on record?
A: inactive: -1.57

Q: Which z-score does the source give for GGAUGUUGAGGAGUUUUUUTT against Trp53 here?
A: inactive: 4.48

Q: For GCUUCAGGACGACUUCUACTT against Fzr1, which z-score is on record?
A: inactive: -0.915

Q: Which z-score does the source give for GGAGGGUCUUGGAUAUGUGTT against Olfr1337 here?
A: inactive: 0.287

Q: For GCCUGUAUAGAUGCUAUUCTT against BC010250, which z-score is on record?
A: inactive: -2.81

Q: Which z-score does the source give for GCCAUUGACUGUACAGGUUTT against Gm226 here?
A: inactive: -0.799

Q: With “CCUAUGAUUCCAAAAAGGUTT against A130022J15Rik” as the sequence, how does the z-score read?
A: inactive: 0.673

Q: Which z-score does the source give for GGAGUUUGUCAUCAUGGGCTT against Gpr4 here?
A: inactive: -1.64

Q: Which z-score does the source give for “GGAACUGAUUGAAAACAUCTT against 1700013H19Rik” here?
A: inactive: 1

Q: Which z-score does the source give for “GGCUGUCAUACUUUCAGGGTT against 4933439A12Rik” here?
A: inactive: -0.076

Q: For CGUGUAUAAUGGCCAGCUUTT against Lamp1, which z-score is on record?
A: inactive: -1.6

Q: Which z-score does the source give for GGAGCUGUUGAAAGAAUAUTT against Tnfrsf19l here?
A: inactive: -1.17

Q: For “GGUCAGAGUACCUCAAAGGTT against 4930550L24Rik”, which z-score is on record?
A: inactive: 0.606

Q: Which z-score does the source give for “GGUGUUCGAGAAGCUGAAGTT against 1110020L19Rik” here?
A: inactive: 1.66

Q: With GGUUCUUCAAUGGCAUUGGTT against Neil1 as the sequence, how does the z-score read?
A: inactive: -0.488

Q: For GGAACUGGAAGAGAAUGAGTT against Sdc4, which z-score is on record?
A: inactive: -0.414

Q: With CCUCAAGUCUAAUUCUCAUTT against AI413631 as the sequence, how does the z-score read?
A: inactive: 1.08

Q: Which z-score does the source give for GGGAAGAAGAGAUUCUGAUTT against Cep2 here?
A: inactive: 1.11

Q: For GGAAUUGAAAUGUCAGAAGTT against Pxmp3, which z-score is on record?
A: inactive: -1.72

Q: Which z-score does the source give for CCCAGGAGUUUAGAUGUAUTT against C1qtnf6 here?
A: inactive: -0.658

Q: With GGAGAAAAUCACUUCUCCATT against Smarca1 as the sequence, how does the z-score read?
A: inactive: 1.16

Q: With GGACCUGAAGUGUUUAGUCTT against Magoh as the sequence, how does the z-score read?
A: inactive: -2.7

Q: For GGCCAGACCAAAAUCAAGCTT against Shox2, which z-score is on record?
A: inactive: 0.175

Q: With “GCACUGCCGGGAGUACUUATT against 5330438D12Rik” as the sequence, how does the z-score read?
A: inactive: -0.0697

Q: Which z-score does the source give for GGUUCACCUGACCUGUUAGTT against Itgad here?
A: inactive: -1.73

Q: With GGGAGCAAGAGCUCUUUUCTT against BC003332 as the sequence, how does the z-score read?
A: inactive: -0.401

Q: Which z-score does the source give for GGAGGUGUGAUCCUAGGCUTT against Slc11a1 here?
A: inactive: 0.886

Q: With GGAUGGUACUUUUUUGGUCTT against Clnk as the sequence, how does the z-score read?
A: inactive: -0.196

Q: With “CCCGGGAUACCACUUAUGUTT against 2700083B06Rik” as the sequence, how does the z-score read?
A: inactive: -0.718

Q: Which z-score does the source give for GGGAUUGUCAUAGUAACAUTT against Phyhip here?
A: inactive: -0.0103

Q: Which z-score does the source give for “GGGAUUACCAAAAAGGCAUTT against 2810413I22Rik” here?
A: inactive: -0.671

Q: With CCCAGUAUCAGACUAUCAUTT against Inpp4a as the sequence, how does the z-score read?
A: inactive: -0.0277

Q: For GGUUUAUCUAUCCAGUUUUTT against Pigb, which z-score is on record?
A: inactive: 1.55

Q: For “GGAUCCACAACUCCAGCUUTT against 3300002I08Rik”, which z-score is on record?
A: inactive: -1.35

Q: Which z-score does the source give for GGGAUUUGAGUUCUGGAGCTT against Fbxo44 here?
A: inactive: 1.65

Q: For GCUGGGAGUAAAAUUGACUTT against Cenpj, which z-score is on record?
A: inactive: -0.21

Q: For GGAAUCAUAUAGACAGGUCTT against Smurf2, which z-score is on record?
A: inactive: 0.59

Q: With CCCUGGGACUUUCCUAGUGTT against Glt8d2 as the sequence, how does the z-score read?
A: inactive: 0.565

Q: Which z-score does the source give for GGCUGCAUUUAAUGUUUUATT against Siat7c here?
A: inactive: -1.15

Q: With GGGUGACCUAAAGAAUUAATT against Csda as the sequence, how does the z-score read?
A: inactive: 0.665

Q: For GGGAAAAUAACGUGACUGATT against Olfr1270, which z-score is on record?
A: inactive: -1.92

Q: Which z-score does the source give for GGUGUCCAAGAUAAUUUGUTT against Gusb here?
A: inactive: -0.324

Q: Which z-score does the source give for GGCACUAAUGGAGAGACUGTT against Nr6a1 here?
A: inactive: -2.8

Q: Which z-score does the source give for “GCAUUGGUAACCAAAUCAUTT against 2610318G18Rik” here?
A: inactive: 0.233

Q: For GGCAUUGGUGAAUCAUAUGTT against Olfr51, which z-score is on record?
A: inactive: 0.117

Q: With GGACAAACUGGUCAUCGGGTT against Mrps28 as the sequence, how does the z-score read?
A: inactive: -0.864

Q: Which z-score does the source give for GCAAUUGCGUAUCGUAAAUTT against Epha4 here?
A: inactive: 0.0823

Q: For GGAGUCUUUCAUUGAAGAATT against Snx12, which z-score is on record?
A: inactive: 0.224

Q: With GGUAGACAAGAUCAUCGGATT against Dsc3 as the sequence, how does the z-score read?
A: inactive: -0.183

Q: With GGUUAUUUGGAAGUGCUACTT against Esx1 as the sequence, how does the z-score read?
A: inactive: -0.558

Q: With “GCCUCAAGUUGAUAAGGAUTT against 4922504M18Rik” as the sequence, how does the z-score read?
A: inactive: 0.956

Q: With GGUUAGUAUGUAGCUCCCATT against Olfr982 as the sequence, how does the z-score read?
A: inactive: 0.662

Q: Which z-score does the source give for GCAAAUAUUACCUGAAAGUTT against Hkr3 here?
A: inactive: -0.853

Q: With GGUGACAGAUUCUUUGAGGTT against BC019943 as the sequence, how does the z-score read?
A: inactive: -0.362

Q: Which z-score does the source give for CCUGCUCUAUGGCAGAACGTT against Nkx2-4 here?
A: inactive: -1.49

Q: With “GCAUAUGGAUAAGAUUGUUTT against C920006C10Rik” as the sequence, how does the z-score read?
A: inactive: -2.37

Q: For GGUGUAAUUGCCUUGAAGGTT against Il17e, which z-score is on record?
A: inactive: 1.28

Q: With “CGCUGCUUUUCCUAGCAGATT against D730049H07Rik” as the sequence, how does the z-score read?
A: inactive: 1.01

Q: With GGCCAUUAACUUAAGUUUGTT against Tcte1l as the sequence, how does the z-score read?
A: inactive: 0.0794

Q: Which z-score does the source give for GCAGACCUAACUAAGCUUUTT against V2r15 here?
A: inactive: -0.261

Q: With GAGAUAAGAUGGGAAAAAATT against Ssbp2 as the sequence, how does the z-score read?
A: inactive: -0.46

Q: Which z-score does the source give for GGUAUAUGCGGAUCCUGAUTT against Limk2 here?
A: inactive: -1.57

Q: Which z-score does the source give for “GCCUAAGAAAUUAGUGAAUTT against 3110032G18Rik” here?
A: inactive: -1.42

Q: Which z-score does the source give for GGAAUAAUGAGGUUAUUGATT against Olfr695 here?
A: inactive: 0.59

Q: For GGAAAGCUUUCUUCACCUGTT against Olfr206, which z-score is on record?
A: inactive: 1.36

Q: Which z-score does the source give for GGAACAAAGACUUCAAAGATT against Olfr323 here?
A: inactive: -0.934

Q: With GGCGAUGUAAUGGAUGUUATT against Nck1 as the sequence, how does the z-score read?
A: inactive: 0.914

Q: For CCUGAUAAGUAUGAGUCCATT against Mag, which z-score is on record?
A: inactive: -0.986

Q: For “GGCUGGAUACUCAGUGCUATT against 1700095H12”, which z-score is on record?
A: inactive: -0.312

Q: Which z-score does the source give for “GGCAGUUAUCUCCUAAUGCTT against 6720457D02Rik” here?
A: inactive: -0.203

Q: For GCACUCACCAGUGAGUCAUTT against Cldn6, which z-score is on record?
A: inactive: 1.16

Q: For GGCUGUGGAAAUGUUUAUUTT against Cirbp, which z-score is on record?
A: inactive: 0.67

Q: With GGGUUGAUUAGUGGAGUGATT against H2-Bl as the sequence, how does the z-score read?
A: inactive: 1.44

Q: With GCAACUUGACCAGGAAUAUTT against Ddx52 as the sequence, how does the z-score read?
A: inactive: -1.45

Q: For “GGAGCUUGGGUUUAAGAUATT against C130052G03Rik”, which z-score is on record?
A: inactive: 1.04

Q: For “GCAGAACCGCCAACCAACATT against 5930405J04Rik”, which z-score is on record?
A: inactive: -0.682
